The supplement of paper PMC7661543
± gives the standard deviation of the averaged measurements. Differences between knockout arms are mostly noise.

Test system: BT-20
Test: relative cell number vs DMSO control (72 h) (% of DMSO); higher = less growth inhibition (more cells)
Method: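 QMAP-Seq: a pool of 5 breast cancer cell lines (ZR-75-1, SKBR3, HCC-38, MDA-MB-231, BT-20), each carrying 12 doxycycline-inducible Cas9 sgRNA perturbations (11 knockouts plus non-targeting sgNT), was treated with compounds for 72 h at four 10-fold doses (10 nM-10 uM or 1 nM-1 uM range). Barcodes were amplified and sequenced, and cell number was interpolated from 293T spike-in standard curves. The result is expressed as % of the median of DMSO wells. Two biological replicates.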

[1] = sgRNA knockout: sgATF3, 1000 nM
[2] = sgRNA knockout: sgATF3, 10000 nM
[3] = sgRNA knockout: sgATF4, 1000 nM
[4] = sgRNA knockout: sgATF4, 10000 nM
[5] = sgRNA knockout: sgATF6, 1000 nM
[6] = sgRNA knockout: sgATF6, 10000 nM
[7] = sgRNA knockout: sgATG7, 1000 nM
[8] = sgRNA knockout: sgATG7, 10000 nM
[9] = sgRNA knockout: sgERN1, 1000 nM
[10] = sgRNA knockout: sgERN1, 10000 nM
[11] = sgRNA knockout: sgHSF1, 1000 nM
[12] = sgRNA knockout: sgHSF1, 10000 nM
[13] = sgRNA knockout: sgHSF2, 1000 nM
[14] = sgRNA knockout: sgHSF2, 10000 nM
[15] = sgRNA knockout: sgKEAP1, 100 nM
[16] = sgRNA knockout: sgKEAP1, 1000 nM
[17] = sgRNA knockout: sgKEAP1, 10000 nM
[18] = sgRNA knockout: sgNFE2L2, 10 nM
[19] = sgRNA knockout: sgNFE2L2, 100 nM
[20] = sgRNA knockout: sgNFE2L2, 1000 nM
[21] = sgRNA knockout: sgNFE2L2, 10000 nM
[22] = sgRNA knockout: sgSLC35F2, 10 nM
[23] = sgRNA knockout: sgSLC35F2, 100 nM
[24] = sgRNA knockout: sgSLC35F2, 1000 nM
[25] = sgRNA knockout: sgSLC35F2, 10000 nM
[26] = sgRNA knockout: sgXBP1, 1000 nM
[27] = sgRNA knockout: sgXBP1, 10000 nM

In the case of COc1cc2nccc(Oc3ccc(NC(=O)Nc4cc(C)on4)c(Cl)c3)c2cc1OC [Tivozanib], the relative cell number (sgRNA knockout: sgATF3, 10 nM) is reported as 89 ± 2, the relative cell number (sgRNA knockout: sgATF3, 100 nM) is reported as 83.3 ± 4.3 and the relative cell number [1] is reported as 88.59 ± 0.24. For the same molecule, the relative cell number [2] was 56 ± 4.2, the relative cell number (sgRNA knockout: sgATF4, 10 nM) was 109 ± 5.9 and the relative cell number (sgRNA knockout: sgATF4, 100 nM) was 103 ± 9.1. For the same molecule, the relative cell number [3] was 96 ± 2.2, the relative cell number [4] was 71.8 ± 5.2 and the relative cell number (sgRNA knockout: sgATF6, 10 nM) was 92.5 ± 12. The relative cell number (sgRNA knockout: sgATF6, 100 nM) was 80.6 ± 1.8, the relative cell number [5] was 100.1 ± 0.55 and the relative cell number [6] was 79.7 ± 20. It also gave a relative cell number (sgRNA knockout: sgATG7, 10 nM) of 92.8 ± 21, a relative cell number (sgRNA knockout: sgATG7, 100 nM) of 93.9 ± 6.7 and a relative cell number [7] of 95.6 ± 23. For the same molecule, the relative cell number [8] was 63.6 ± 10, the relative cell number (sgRNA knockout: sgERN1, 10 nM) was 82 ± 4.1 and the relative cell number (sgRNA knockout: sgERN1, 100 nM) was 98.4 ± 12. The relative cell number [9] was 102 ± 17, the relative cell number [10] was 65.6 ± 6.2 and the relative cell number (sgRNA knockout: sgHSF1, 10 nM) was 109 ± 2.4. It also gave a relative cell number (sgRNA knockout: sgHSF1, 100 nM) of 98.9 ± 8.4, a relative cell number [11] of 100 ± 1.4 and a relative cell number [12] of 68.9 ± 5.2. The relative cell number (sgRNA knockout: sgHSF2, 10 nM) was 88.2 ± 9.6, the relative cell number (sgRNA knockout: sgHSF2, 100 nM) was 110 ± 16 and the relative cell number [13] was 92.1 ± 10. For the same molecule, the relative cell number [14] was 71 ± 7.4, the relative cell number (sgRNA knockout: sgKEAP1, 10 nM) was 98.1 ± 6 and the relative cell number [15] was 88.9 ± 7.9. It also gave a relative cell number [16] of 102 ± 9.6, a relative cell number [17] of 70.2 ± 5.2 and a relative cell number [18] of 80.5 ± 13. It also gave a relative cell number [19] of 96.3 ± 21, a relative cell number [20] of 108 ± 3.9 and a relative cell number [21] of 69.4 ± 1.7. For the same molecule, the relative cell number [22] was 80.3 ± 4.3, the relative cell number [23] was 108 ± 31 and the relative cell number [24] was 95.8 ± 1.6. It also gave a relative cell number [25] of 64.6 ± 18, a relative cell number (sgRNA knockout: sgXBP1, 10 nM) of 83.9 ± 4.3 and a relative cell number (sgRNA knockout: sgXBP1, 100 nM) of 95.5 ± 3.3. For the same molecule, the relative cell number [26] was 107 ± 1.4 and the relative cell number [27] was 81.3 ± 12.
For O=P1(N(CCCl)CCCl)NCCCO1 (stereo not drawn) [Cyclophosphamide], the relative cell number (sgRNA knockout: sgATF3, 10 nM) was 89.3 ± 5.2, the relative cell number (sgRNA knockout: sgATF3, 100 nM) was 106 ± 4.5 and the relative cell number [1] was 100 ± 3.6. For the same molecule, the relative cell number [2] was 99.5 ± 4.6, the relative cell number (sgRNA knockout: sgATF4, 10 nM) was 97.1 ± 1.9 and the relative cell number (sgRNA knockout: sgATF4, 100 nM) was 99.4 ± 2.2. It also gave a relative cell number [3] of 101 ± 6.8, a relative cell number [4] of 99.7 ± 6.3 and a relative cell number (sgRNA knockout: sgATF6, 10 nM) of 91.8 ± 4.6. It also gave a relative cell number (sgRNA knockout: sgATF6, 100 nM) of 98.6 ± 6.1, a relative cell number [5] of 85.5 ± 2.8 and a relative cell number [6] of 90.3 ± 3.6. It also gave a relative cell number (sgRNA knockout: sgATG7, 10 nM) of 94.2 ± 20, a relative cell number (sgRNA knockout: sgATG7, 100 nM) of 91.76 ± 0.31 and a relative cell number [7] of 87.9 ± 7.5. It also gave a relative cell number [8] of 95.7 ± 15, a relative cell number (sgRNA knockout: sgERN1, 10 nM) of 96.7 ± 22 and a relative cell number (sgRNA knockout: sgERN1, 100 nM) of 90.2 ± 2.6. The relative cell number [9] was 99.2 ± 15, the relative cell number [10] was 89.5 ± 19 and the relative cell number (sgRNA knockout: sgHSF1, 10 nM) was 96.57 ± 0.34. It also gave a relative cell number (sgRNA knockout: sgHSF1, 100 nM) of 86.6 ± 3, a relative cell number [11] of 94.5 ± 19 and a relative cell number [12] of 97.2 ± 6.6. For the same molecule, the relative cell number (sgRNA knockout: sgHSF2, 10 nM) was 96.4 ± 41, the relative cell number (sgRNA knockout: sgHSF2, 100 nM) was 99.3 ± 9.4 and the relative cell number [13] was 87.17 ± 0.18. It also gave a relative cell number [14] of 93 ± 14, a relative cell number (sgRNA knockout: sgKEAP1, 10 nM) of 93.4 ± 20 and a relative cell number [15] of 97.8 ± 4.9. It also gave a relative cell number [16] of 92.1 ± 12, a relative cell number [17] of 90.5 ± 14 and a relative cell number [18] of 102 ± 9.3. The relative cell number [19] was 99.2 ± 4.4, the relative cell number [20] was 106 ± 8.2 and the relative cell number [21] was 107 ± 11. It also gave a relative cell number [22] of 92.1 ± 7.4, a relative cell number [23] of 92.8 ± 5 and a relative cell number [24] of 113 ± 11. It also gave a relative cell number [25] of 108 ± 4.8, a relative cell number (sgRNA knockout: sgXBP1, 10 nM) of 97.9 ± 20 and a relative cell number (sgRNA knockout: sgXBP1, 100 nM) of 93.7 ± 11. For the same molecule, the relative cell number [26] was 109 ± 6 and the relative cell number [27] was 107 ± 16.
